Measured values as given in ChEMBL document CHEMBL1123844, “Synthesis of new antiinflammatory steroidal 20-carboxamides: (20R)- and (20S)-21-(N-substituted amino)-11 beta,17,20-trihydroxy-3,21-dioxo-1,4- pregnadiene” (J Med Chem, 1987).

How the values were obtained:
[1] = Octanol- water partition coefficient was determined.
Rattus norvegicus [2] = species on record: Rattus norvegicus; experiment: Evaluated for antiinflammatory activity in granuloma bioassay and expressed as relative thymus weight; assay type: functional
Outline: (§1)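 Male Sprague–Dawley rats (100–200 g), acclimated 1 week under controlled lighting. Each rat got one cotton pellet (35 ± 1 mg) loaded with 2 mg steroid in acetone and one vehicle pellet; controls got two vehicle pellets. Rats were killed 7 days later. Readouts: thymus and adrenal weights, initial/final body weight, plasma corticosterone by 3H radioimmunoassay of cardiac blood. Mean ± SEM, n=6, Student's t test.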

Rattus norvegicus [3] = species on record: Rattus norvegicus; experiment: Evaluated for antiinflammatory activity in granuloma bioassay and expressed as relative adrenal weight; assay type: functional; outline: as §1

SMILES	Partition coefficient [1]	Relative thymus weight (Rattus norvegicus [2])	Relative adrenal weight (Rattus norvegicus [3])
CCNC(=O)[C@@H](O)[C@@]1(O)CC[C@H]2[C@@H]3CCC4=CC(=O)C=C[C@]4(C)[C@H]3[C@@H](O)C[C@@]21C	16.3	256.8 mg 100g-1	12.9 mg 100g-1
CCNC(=O)[C@H](O)[C@@]1(O)CC[C@H]2[C@@H]3CCC4=CC(=O)C=C[C@]4(C)[C@H]3[C@@H](O)C[C@@]21C	17.5	204.9 mg 100g-1	15.7 mg 100g-1
